Measured values published in publication PMC6171917.
No constants are given. Whether binding was seen depends on the method and setting. Some results given as binding are weak or reduced against the parent protein; the word gives no strength. Tags and fused reporters may be left off the sequences shown.

Protein sequences, listed by entry. Tags and fused reporters are not part of them. Lines headed by an entry give the natural chain unless they say otherwise; changes in a name come on top.
UniProt P17661: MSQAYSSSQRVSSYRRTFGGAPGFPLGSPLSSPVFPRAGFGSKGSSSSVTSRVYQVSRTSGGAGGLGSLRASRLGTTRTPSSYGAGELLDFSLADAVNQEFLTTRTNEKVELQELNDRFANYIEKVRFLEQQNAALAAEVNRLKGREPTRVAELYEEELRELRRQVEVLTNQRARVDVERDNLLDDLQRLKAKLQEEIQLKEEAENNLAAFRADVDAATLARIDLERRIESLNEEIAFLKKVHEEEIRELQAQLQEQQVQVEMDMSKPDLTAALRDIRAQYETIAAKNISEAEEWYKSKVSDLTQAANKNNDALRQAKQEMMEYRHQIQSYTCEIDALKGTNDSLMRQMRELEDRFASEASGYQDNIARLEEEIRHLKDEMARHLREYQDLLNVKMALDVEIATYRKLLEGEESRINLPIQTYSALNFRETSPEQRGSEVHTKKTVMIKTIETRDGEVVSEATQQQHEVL
UniProt P13647: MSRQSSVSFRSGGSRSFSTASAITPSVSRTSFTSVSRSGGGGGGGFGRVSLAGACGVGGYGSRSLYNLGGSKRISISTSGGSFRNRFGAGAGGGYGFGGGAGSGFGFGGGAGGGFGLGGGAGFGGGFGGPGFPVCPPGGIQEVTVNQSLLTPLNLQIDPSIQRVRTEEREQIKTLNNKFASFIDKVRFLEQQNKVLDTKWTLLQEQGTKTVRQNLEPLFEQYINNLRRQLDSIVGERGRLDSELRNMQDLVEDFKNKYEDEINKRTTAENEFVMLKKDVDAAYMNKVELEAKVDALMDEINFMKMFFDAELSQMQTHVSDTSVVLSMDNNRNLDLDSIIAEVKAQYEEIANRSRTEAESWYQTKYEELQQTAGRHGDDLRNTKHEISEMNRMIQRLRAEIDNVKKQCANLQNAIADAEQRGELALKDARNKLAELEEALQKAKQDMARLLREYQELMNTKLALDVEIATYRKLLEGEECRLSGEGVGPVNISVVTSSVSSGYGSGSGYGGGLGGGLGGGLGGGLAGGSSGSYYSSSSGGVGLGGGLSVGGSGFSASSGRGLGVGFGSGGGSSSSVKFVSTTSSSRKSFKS

What was measured:
desmin, full-length [1] = molecular target: desmin, full-length (UniProt P17661); assay: far-Western, overlay or dot blot; FluoBACE overlay of western blot: whole extracts from E. coli expressing the proteins on 15% SDS-PAGE, transferred, overlaid 1 h at 4°C with soluble HEK 293T extract with EGFP-DSP C-terminus (67 ± 17 nM total), fluorescence scan
[2] = molecular target: H6-small ubiquitin-related modifier (SUMO) [SUMO: Q12306]; assay: far-Western, overlay or dot blot; FluoBACE overlay of western blot: purified proteins (4 μg/lane) on 15% SDS-PAGE, transferred, blocked in PBS 5% skim milk, overlaid 1 h at 4°C with soluble HEK 293T extract with EGFP-DSP C-terminus (67 ± 17 nM total), fluorescence scan; only the target purified
desmin, full-length [3] = molecular target: desmin, full-length (UniProt P17661); assay: as above
[4] = molecular target: K5/K14 (mixture or heterodimer of full-length cytokeratins 5 and 14) (UniProt P13647); assay: far-Western, overlay or dot blot; FluoBACE dot blot: Ks, individual or mixed, spotted on nitrocellulose (3 pmol/spot) in Tris-HCl/DTT/urea buffers; overlaid with soluble extracts of HEK 293T cells expressing EGFP-DSP C-terminus (64 ± 29 nM or 55 ± 21 nM total) and scanned for fluorescence; only the target purified

binding (desmin, full-length [1]): binds
binding (desmin, full-length [3]): binds
binding [4]: binds
B1: EGFP-DSP C-terminus (C-terminus of desmoplakin tagged at the N-terminus with EGFP) (domain or fragment, UniProt P15924-1 2194-2871)
chain: PHTGLLLLSVQKRSMSFQGIRQPVTVTELVDSGILRPSTVNELESGQISYDEVGERIKDFLQGSSCIAGIYNETTKQKLGIYEAMKIGLVRPGTALELLEAQAATGFIVDPVSNLRLPVEEAYKRGLVGIEFKEKLLSAERAVTGYNDPETGNIISLFQAMNKELIEKGHGIRLLEAQIATGGIIDPKESHRLPVDIAYKRGYFNEELSEILSDPSDDTKGFFDPNTEENLTYLQLKERCIKDEETGLCLLPLKEKKKQVQTSQKNTLRKRRVVIVDPETNKEMSVQEAYKKGLIDYETFKELCEQECEWEEITITGSDGSTRVVLVDRKTGSQYDIQDAIDKGLVDRKFFDQYRSGSLSLTQFADMISLKNGVGTSSSMGSGVSDDVFSSSRHESVSKISTISSVRNLTIRSSSFSDTLEESSPIAAIFDTENLEKISITEGIERGIVDSITGQRLLEAQACTGGIIHPTTGQKLSLQDAVSQGVIDQDMATRLKPAQKAFIGFEGVKGKKKMSAAEAVKEKWLPYEAGQRFLEFQYLTGGLVDPEVHGRISTEEAIRKGFIDGRAAQRLQDTSSYAKILTCPKTKLKISYKDAINRSMVEDITGLRLLEAASVSSKGLPSPYNMSSAPGSRSGSRSGSRSGSRSGSRSGSRRGGFDATGNSSYSYSYSFSSSSIGH
binding [2]: no binding (tested: 67 ± 17 nM, total concentration)
